system: human solid tumor cell lines (A549, HBL-100, HeLa, SW1573, T-47D, WiDr); assay: Antiproliferative SRB assay, whole panel of tumor cell lines; format: cell-based; conditions: tumor cell lines versus mouse splenocytes
Procedure: In vitro antiproliferative activity was evaluated using the protocol of the National Cancer Institute (NCI) after 48 h of drug exposure using the sulforhodamine B (SRB) assay. […] We cannot discard that increasing lipophilicity may well result in an increase in cytotoxicity in vitro.
The following human solid tumor cell lines were used in this study: HBL-100 (breast), HeLa (cervix), SW1573 (non-small cell lung), T-47D (breast), A549 (lung), and WiDr (colon). Cells were maintained in 25 cm^2 culture flasks in RPMI 1640 supplemented with 5% heat-inactivated fetal calf serum and 2 mM L-glutamine in a 37 °C, 5% CO2, 95% humidified air incubator. Exponentially growing cells were trypsinized and resuspended in antibiotic containing medium (100 units penicillin G and 0.1 mg of streptomycin per mL). Single-cell suspensions displaying >97% viability by trypan blue dye exclusion test were subsequently counted. After counting, dilutions were made to give the appropriate cell densities for inoculation onto 96-well microtiter plates. Cells were inoculated in a volume of 100 μL per well at densities of 20,000 (WiDr), 15,000 (T-47D and A549), and 10,000 (HeLa, SW1573, and HBL-100) cells per well, based on their doubling times.
Chemosensitivity tests were performed using the SRB assay of the NCI with slight modifications. Briefly, pure compounds were initially dissolved in DMSO at 400 times the desired final maximum test concentration. Control cells were exposed to an equivalent concentration of DMSO (0.25% v/v, negative control). Each agent was tested in triplicate at different dilutions in the range 1–100 μM. Drug treatment started on day 1 after plating. […] Optical density (OD) of each well was measured at 492 nm, using BioTek’s PowerWave XS Absorbance Microplate Reader (Highland Park, Winooski, VT, USA). […] The percentage growth (PG) was calculated with respect to untreated control cells (C) at each level of drug concentrations based on the difference in OD at the start time (T0) and at the end of drug exposure (T), according to NCI formulas. […]

With `C=C1C(=O)O[C@@H]2[C@H]1CC[C@H](C)[C@@]1(O)C=CC(=O)[C@@]21C` [Compound 3, hymenin] as the molecule, how does the “selectivity of action against tumor cell lines in words” value (“selectivity of action” for short) read?
The value was “low selectivity”.

For `C=C1C(=O)O[C@@H]2C[C@@H](C)[C@@H]3C=CC(=O)[C@@]3(C)[C@@H](O)[C@H]12` [Compound 2, helenalin], which “selectivity of action” value is on record?
The value was “low selectivity”.

Which “selectivity of action” value does the source give for `C=C1C(=O)OC2CC(C)C3CC(OCc4cn(Cc5ccccc5)nn4)C(O)C3(C)CC12` (stereo not drawn) [Compound 10] here?
The value was “low selectivity”.

From paper PMC6471591, “Preparation of Sesquiterpene Lactone Derivatives: Cytotoxic Activity and Selectivity of Action” (Molecules, 2019)
